# Reference: patent US20080286287A1
# Sequences of proteins named here, by UniProt entry; tags and fusion partners are left off. Residues count along the entry.
# UniProt P05019, residues 49-118: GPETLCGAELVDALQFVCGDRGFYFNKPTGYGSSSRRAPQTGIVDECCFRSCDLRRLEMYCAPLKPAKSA
# These are yes or no findings as the source states them, for the method shown. Some binding calls cover weakened binding; strength is not graded here.
# B1: rat IGFBP-2 associated with rat brain olfactory bulb membranes (protein, UniProt P12843 35-304, looked up)
# chain: EVLFRCPPCTPERLAACGPPPDAPCAELVREPGCGCCSVCARQEGEACGVYIPRCAQTLRCYPNPGSELPLKALVTGAGTCEKRRVGATPQQVADSEDDHSEGGLVENHVDGTMNMLGGSSAGRKPPKSGMKELAVFREKVNEQHRQMGKGAKHLSLEEPKKLRPPPARTPCQQELDQVLERISTMRLPDDRGPLEHLYSLHIPNCDKHGLYNLKQCKMSLNGQRGECWCVNPNTGKPIQGAPTIRGDPECHLFYNEQQENDGAHAQRVQ
# Molecular target: Human-IGF-I (human) (UniProt P05019)
# Assay: 125I-IGF-I binding and DSS cross-linking to rat olfactory bulb membranes, SDS-PAGE autoradiography
binder,measurement,value
B1,binding,binds
